# Where a chain is given by its changes, count along the chain named. Some of the results follow. For some of these results: At the low end of the ranking the order means little.
# Assays:
# Settings in all cases: yeast three-hybrid, YBZ-1, SC-Leu-His + 0.5 mM 3-AT, 4 days
# [1] = molecular target: T1, PUM1 PUF domain R5-SGT C1007S + R1008G + Q1011T (UniProt Q14671)
# T1 sequence: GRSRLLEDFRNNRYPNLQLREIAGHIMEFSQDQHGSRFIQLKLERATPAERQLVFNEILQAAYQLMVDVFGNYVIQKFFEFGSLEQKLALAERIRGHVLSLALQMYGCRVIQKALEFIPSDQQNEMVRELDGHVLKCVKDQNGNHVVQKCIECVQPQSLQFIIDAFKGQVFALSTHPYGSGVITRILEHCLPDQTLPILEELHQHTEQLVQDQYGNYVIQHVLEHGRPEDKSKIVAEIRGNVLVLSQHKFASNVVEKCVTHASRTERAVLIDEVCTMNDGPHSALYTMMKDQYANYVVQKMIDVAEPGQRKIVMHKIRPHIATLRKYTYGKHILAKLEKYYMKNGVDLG
# [2] = molecular target: T2, PUM1 PUF domain R5-SGV C1007S + R1008G + Q1011V (UniProt Q14671)
# T2 sequence: T1 sequence with T184V
# [3] = molecular target: T3, PUM1 PUF domain R5-SIS C1007S + R1008I + Q1011S (UniProt Q14671)
# T3 sequence: T1 sequence with G181I, T184S
# [4] = molecular target: T4, PUM1 PUF domain R5-SMG C1007S + R1008M + Q1011G (UniProt Q14671)
# T4 sequence: T1 sequence with G181M, T184G
# [5] = molecular target: T5, PUM1 PUF domain R5-SMS C1007S + R1008M + Q1011S (UniProt Q14671)
# T5 sequence: T1 sequence with G181M, T184S
# [6] = molecular target: T6, PUM1 PUF domain R5-SNG C1007S + R1008N + Q1011G (UniProt Q14671)
# T6 sequence: T1 sequence with G181N, T184G
# [7] = molecular target: T7, PUM1 PUF domain R5-SNS C1007S + R1008N + Q1011S (UniProt Q14671)
# T7 sequence: T1 sequence with G181N, T184S
# [8] = molecular target: T8, PUM1 PUF domain R5-SQA C1007S + R1008Q + Q1011A (UniProt Q14671)
# T8 sequence: T1 sequence with G181Q, T184A
# [9] = molecular target: T9, PUM1 PUF domain R5-SQG C1007S + R1008Q + Q1011G (UniProt Q14671)
# T9 sequence: T1 sequence with G181Q, T184G
# [10] = molecular target: T10, PUM1 PUF domain R5-SQS C1007S + R1008Q + Q1011S (UniProt Q14671)
# T10 sequence: T1 sequence with G181Q, T184S
# [11] = molecular target: T11, PUM1 PUF domain R5-SRI C1007S + Q1011I (Homo sapiens) (UniProt Q14671)
# T11 sequence: T1 sequence with G181R, T184I
# [12] = molecular target: T12, PUM1 PUF domain R5-SRL C1007S + Q1011L (Homo sapiens) (UniProt Q14671)
# T12 sequence: T1 sequence with G181R, T184L
# [13] = molecular target: T13, PUM1 PUF domain R5-SRM C1007S + Q1011M (Homo sapiens) (UniProt Q14671)
# T13 sequence: T1 sequence with G181R, T184M
# [14] = molecular target: T14, PUM1 PUF domain R5-SRT C1007S + Q1011T (UniProt Q14671)
# T14 sequence: T1 sequence with G181R
# [15] = molecular target: T15, PUM1 PUF domain R5-SRV C1007S + Q1011V (Homo sapiens) (UniProt Q14671)
# T15 sequence: T1 sequence with G181R, T184V
# [16] = molecular target: T16, PUM1 PUF domain R5-SVG C1007S + R1008V + Q1011G (UniProt Q14671)
# T16 sequence: T1 sequence with G181V, T184G
# [17] = molecular target: T17, PUM1 PUF domain R5-SVS C1007S + R1008V + Q1011S (UniProt Q14671)
# T17 sequence: T1 sequence with G181V, T184S
# [18] = molecular target: T18, PUM1 PUF domain R5-SVT C1007S + R1008V + Q1011T (Homo sapiens) (UniProt Q14671)
# T18 sequence: T1 sequence with G181V
# [19] = molecular target: T19, PUM1 PUF domain R5-SVV C1007S + R1008V + Q1011V (UniProt Q14671)
# T19 sequence: T1 sequence with G181V, T184V
# [20] = molecular target: T20, PUM1 PUF domain R5-TFY C1007T + R1008F + Q1011Y (UniProt Q14671)
# T20 sequence: T1 sequence with S180T, G181F, T184Y
# [21] = molecular target: T21, PUM1 PUF domain R5-TNG C1007T + R1008N + Q1011G (UniProt Q14671)
# T21 sequence: T1 sequence with S180T, G181N, T184G
# [22] = molecular target: T22, PUM1 PUF domain R5-TQG C1007T + R1008Q + Q1011G (UniProt Q14671)
# T22 sequence: T1 sequence with S180T, G181Q, T184G
# [23] = molecular target: T23, PUM1 PUF domain R5-TRA C1007T + Q1011A (UniProt Q14671)
# T23 sequence: T1 sequence with S180T, G181R, T184A
# [24] = molecular target: T24, PUM1 PUF domain R5-TRF C1007T + Q1011F (UniProt Q14671)
# T24 sequence: T1 sequence with S180T, G181R, T184F
# [25] = molecular target: T25, PUM1 PUF domain R5-TRG C1007T + Q1011G (Homo sapiens) (UniProt Q14671)
# T25 sequence: T1 sequence with S180T, G181R, T184G
# [26] = molecular target: T26, PUM1 PUF domain R5-TRK C1007T + Q1011K (Homo sapiens) (UniProt Q14671)
# T26 sequence: T1 sequence with S180T, G181R, T184K
# [27] = molecular target: T27, PUM1 PUF domain R5-TRL C1007T + Q1011L (UniProt Q14671)
# T27 sequence: T1 sequence with S180T, G181R, T184L
# [28] = molecular target: T28, PUM1 PUF domain R5-TRS C1007T + Q1011S (Homo sapiens) (UniProt Q14671)
# T28 sequence: T1 sequence with S180T, G181R, T184S
# [29] = molecular target: T29, PUM1 PUF domain R5-TRV C1007T + Q1011V (Homo sapiens) (UniProt Q14671)
# T29 sequence: T1 sequence with S180T, G181R, T184V
# [30] = molecular target: T30, PUM1 PUF domain R5-TRY C1007T + Q1011Y (UniProt Q14671)
# T30 sequence: T1 sequence with S180T, G181R, T184Y
# [31] = molecular target: T31, PUM1 PUF domain R5-TYF C1007T + R1008Y + Q1011F (UniProt Q14671)
# T31 sequence: T1 sequence with S180T, G181Y, T184F
# [32] = molecular target: T32, PUM1 PUF domain R5-VHL C1007V + R1008H + Q1011L (UniProt Q14671)
# T32 sequence: T1 sequence with S180V, G181H, T184L
# [33] = molecular target: T33, PUM1 PUF domain R5-VNR C1007V + R1008N + Q1011R (Homo sapiens) (UniProt Q14671)
# T33 sequence: T1 sequence with S180V, G181N, T184R
# [34] = molecular target: T34, PUM1 PUF domain R5-VRV C1007V + Q1011V (Homo sapiens) (UniProt Q14671)
# T34 sequence: T1 sequence with S180V, G181R, T184V
# [35] = molecular target: T35, PUM1 PUF domain R5-VYF C1007V + R1008Y + Q1011F (UniProt Q14671)
# T35 sequence: T1 sequence with S180V, G181Y, T184F
# [36] = molecular target: T36, PUM1 PUF domain R5-VYY C1007V + R1008Y + Q1011Y (UniProt Q14671)
# T36 sequence: T1 sequence with S180V, G181Y, T184Y
# [37] = molecular target: T37, PUM1 PUF domain R5-WGF C1007W + R1008G + Q1011F (UniProt Q14671)
# T37 sequence: T1 sequence with S180W, T184F
# [38] = molecular target: T38, PUM1 PUF domain R5-WRD C1007W + Q1011D (Homo sapiens) (UniProt Q14671)
# T38 sequence: T1 sequence with S180W, G181R, T184D
# [39] = molecular target: T39, PUM1 PUF domain R5-WWA C1007W + R1008W + Q1011A (Homo sapiens) (UniProt Q14671)
# T39 sequence: T1 sequence with S180W, G181W, T184A
# [40] = molecular target: T40, PUM1 PUF domain R5-YNG C1007Y + R1008N + Q1011G (UniProt Q14671)
# T40 sequence: T1 sequence with S180Y, G181N, T184G
sequence,measurement,setting,value
GGCUAGAACUAGUGGAUCCCCCGGCGCCCGGCGGCUCGAGCCCGGGUAAGUGUCAAUAGUCUGCAUGCCGCCGGGCGCCAUGCCUGCAGGUCGACUCUAGAAAACAUG,binding signal (log2 enrichment (interaction score)),[1],-5.62
same,binding signal (log2 enrichment (interaction score)),[2],-2.93
same,binding signal (log2 enrichment (interaction score)),[3],-8.21
same,binding signal (log2 enrichment (interaction score)),[4],-2.65
same,binding signal (log2 enrichment (interaction score)),[5],< -7.64
same,binding signal (log2 enrichment (interaction score)),[6],< -7.9
same,binding signal (log2 enrichment (interaction score)),[7],-6.12
same,binding signal (log2 enrichment (interaction score)),[8],< -7.76
same,binding signal (log2 enrichment (interaction score)),[9],-2.65
same,binding signal (log2 enrichment (interaction score)),[10],-7.12
same,binding signal (log2 enrichment (interaction score)),[11],-1.61
same,binding signal (log2 enrichment (interaction score)),[12],-0.35
same,binding signal (log2 enrichment (interaction score)),[13],-0.5
same,binding signal (log2 enrichment (interaction score)),[14],-4.25
same,binding signal (log2 enrichment (interaction score)),[15],-1.26
same,binding signal (log2 enrichment (interaction score)),[16],-2.69
same,binding signal (log2 enrichment (interaction score)),[17],-4.52
same,binding signal (log2 enrichment (interaction score)),[18],-3.39
same,binding signal (log2 enrichment (interaction score)),[19],-3.33
same,binding signal (log2 enrichment (interaction score)),[20],< -7.75
same,binding signal (log2 enrichment (interaction score)),[21],< -7.05
same,binding signal (log2 enrichment (interaction score)),[22],-4.97
same,binding signal (log2 enrichment (interaction score)),[23],-2.4
same,binding signal (log2 enrichment (interaction score)),[24],-2.09
same,binding signal (log2 enrichment (interaction score)),[25],0.16
same,binding signal (log2 enrichment (interaction score)),[26],-0.52
same,binding signal (log2 enrichment (interaction score)),[27],-4.25
same,binding signal (log2 enrichment (interaction score)),[28],-0.42
same,binding signal (log2 enrichment (interaction score)),[29],-1.42
same,binding signal (log2 enrichment (interaction score)),[30],< -6.49
same,binding signal (log2 enrichment (interaction score)),[31],-4.82
same,binding signal (log2 enrichment (interaction score)),[32],< -6.18
same,binding signal (log2 enrichment (interaction score)),[33],-0.56
same,binding signal (log2 enrichment (interaction score)),[34],-0.48
same,binding signal (log2 enrichment (interaction score)),[35],< -8.82
same,binding signal (log2 enrichment (interaction score)),[36],< -7.38
same,binding signal (log2 enrichment (interaction score)),[37],< -7.56
same,binding signal (log2 enrichment (interaction score)),[38],0.14
same,binding signal (log2 enrichment (interaction score)),[39],0.1
same,binding signal (log2 enrichment (interaction score)),[40],< -7.03

# Retrieved one by one from the entries so far:
sequence,measurement,setting,value
GGCUAGAACUAGUGGAUCCCCCGGCGCCCGGCGGCUCGAGCCCGGGUAAGUGUCAAUAGUCUGCAUGCCGCCGGGCGCCAUGCCUGCAGGUCGACUCUAGAAAACAUG,binding signal (log2 enrichment (interaction score)),[37],< -7.56
same,binding signal (log2 enrichment (interaction score)),[34],-0.48
same,binding signal (log2 enrichment (interaction score)),[22],-4.97

# Reference: paper PMC8384837
